Patent US8679479
No constants are given. Whether binding was seen depends on the method and setting. Some results given as binding are weak or reduced against the parent protein; the word gives no strength.

Sequences of proteins named here, by UniProt entry; tags and fusion partners are left off. A change or cut given only in a name is not applied to a line headed by its entry.
UniProt P05089: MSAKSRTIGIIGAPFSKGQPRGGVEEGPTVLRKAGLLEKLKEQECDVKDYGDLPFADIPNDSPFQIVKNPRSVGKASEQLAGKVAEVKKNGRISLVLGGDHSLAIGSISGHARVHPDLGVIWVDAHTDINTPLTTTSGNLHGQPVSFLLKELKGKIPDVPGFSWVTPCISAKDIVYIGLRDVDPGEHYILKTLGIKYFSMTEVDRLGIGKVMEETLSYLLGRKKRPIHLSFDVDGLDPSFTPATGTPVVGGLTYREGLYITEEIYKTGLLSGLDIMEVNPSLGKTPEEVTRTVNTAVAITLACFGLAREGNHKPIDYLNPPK

Key:
[1] = target: human Arginase I (hArgI), N-terminal Cys variant NTC-hArgI (human) (UniProt P05089); test: SEC, Superdex 200, PBS pH 7.4 (self-association)
[2] = target: human Arginase I (hArgI), N-terminal Cys variant NTC-hArgI (human) (UniProt P05089); test: SEC at pH 7.4 and pH 4.5 (self-association)

B1: human Arginase I (hArgI), N-terminal Cys variant NTC-hArgI (enzyme)
chain: MGCSHHHHHHSSGSAKSRTIGIIGAPFSKGQPRGGVEEGPTVLRKAGLLEKLKEQECDVKDYGDLPFADIPNDSPFQIVKNPRSVGKASEQLAGKVAEVKKNGRISLVLGGDHSLAIGSISGHARVHPDLGVIWVDAHTDINTPLTTTSGNLHGQPVSFLLKELKGKIPDVPGFSWVTPCISAKDIVYIGLRDVDPGEHYILKTLGIKYFSMTEVDRLGIGKVMEETLSYLLGRKKRPIHLSFDVDGLDPSFTPATGTPVVGGLTYREGLYITEEIYKTGLLSGLDIMEVNPSLGKTPEEVTRTVNTAVAITLACFGLAREGNHKPIDYLNPPK
Q: For B1, which binding [1] is on record?
A: The binding was “binds”.

Q: And the binding [2]?
A: Its binding is “binds”.
